# Primary screen of a compound library

Source: ChEMBL document CHEMBL3988442, “University of Dundee, Small-Polar-MMV Screening Library” (2021).

Mtb glucose medium: 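Growth of Mycobacterium tuberculosis over 3 days (7H9 medium with glucose and tyloxapol); the read-out is not stated. Tested at 50 µM. Direction is inferred from retests: higher values go with more growth inhibition. About 69,000 compounds were tested under these conditions; 1.1% (about 760) showed 50% or more at least once.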
Mtb cholesterol medium: 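Growth of Mycobacterium tuberculosis over 4 days (cholesterol / DPPC medium with tyloxapol); the read-out is not stated. Compounds at 50 µM. Higher reads as more growth inhibition (inferred: compounds with an IC50 in retests scored well above the rest). Of about 69,000 compounds tested this way, about 370 (0.54%) reached 50% or more in at least one test.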

The filed quantity is “Percent Effect” (%).
How 0% and 100% were set is not recorded. Most values in the screen are low, and negative values occur.
This is an unselected part of the compounds tested.
Two or more numbers in one place are separate tests of the same structure; such repeats can differ widely.

Compound,Mtb glucose medium,Mtb cholesterol medium
CC(=O)N1CCN(Cc2c(C)ccc3ccccc23)CC(O)C1 (centres undefined),-7.022,3.824
O=C(NCCN1CCOCC1)N(CCCO)C1CCCc2ccccc21 (centres undefined),6.053,-2.288 & 1.954
c1cncc(CN2CCCC(c3nnc(-c4cnccn4)o3)C2)c1 (centres undefined),7.102,86.35
CC(C)Cc1noc(CN2CCC(NC(=O)c3cccs3)CC2)n1,-15.81,6.861
Cn1cnc2c1CCN(CCCS(=O)(=O)c1ccccc1)C2,-38,-29.77
Cc1cnn(CC2CN(CCN3CCCC3=O)CCO2)c1 (centres undefined),2.632,1.185
Cc1cc(N(C)C)nc(N2CCN(C(C)c3nc(C)no3)CC2)n1 (centres undefined),-12.91,-17.79
Cc1noc(C)c1-c1cccc(C2CCCNC2)n1 (centres undefined),30.67,15.38
Cc1cccnc1NC(=O)C1CCCN(c2cccc(C(F)(F)F)n2)C1 (centres undefined),21.14,-11.12
CCCC(C#N)NC(=O)COC1CCCCC1 (centres undefined),11.29 & 24.79,0.4785
Cc1nc[nH]c1C(=O)NCc1cccnc1N(C)C1CCCCC1,10.01,3.588
Nc1nc(N)c2c(n1)OC1(COCCN(Cc3nccs3)C1)C2 (centres undefined),-29.34,2.195 & -14.59
CN(C1CCCCC1)S(=O)(=O)NC1CCN(c2ncccn2)CC1,26.75 & 17.99,-12.5
O=C(NCCCn1nc2ccccn2c1=O)NCCC1CCC1,46.75,31.59
O=C(NCCCF)Nc1ccc2nc(N3CCOCC3)oc2c1,26.72,5.842
CCC(Nc1nc(C)nc2c1cnn2C)c1ncnn1CC (centres undefined),-4.183,0.5607
CN1CCC2(CC1)C(=O)N(CC1CC1)c1ccccc12.O=C(O)C(F)(F)F,-0.1197,5.39
COc1ccc(C(C(=O)O)N(C)Cc2ccon2)cc1Cl (centres undefined),9.725,6.869 & -7.174
Cc1ccc(C#N)cc1NC(=O)NC1CCCN(c2ncccn2)C1 (centres undefined),1.194,-6.03
Cn1ccnc1CN1CCN(CCOc2ccccc2C#N)CC1,-6.782,-16.49
Cc1cc2cc(C(=O)N3CC[C@H](O)[C@]4(CCCO4)C3)ccc2o1,7.756,-0.4972
Cc1cccc(S(=O)(=O)N2CCC3(CC2)CC(N(C)C)CO3)c1 (centres undefined),-14.51,0.1172
Cl.[H][C@@]12OCCC[C@]1([H])NC[C@@H]2NC(=O)c1cscn1,-1.522,-1.561
CC(C)(C)c1cc(NC(=O)C2CCCO2)n(-c2ccccn2)n1 (centres undefined),-24.45,-14.6
CCn1nnnc1-c1cccc(NC(=O)CCc2cnn(C)c2)c1,-21.07,-25.59
COCC1CN(CCOc2ccc(Cl)cc2)Cc2c1cnn2C.O=C(O)C(F)(F)F.O=C(O)C(F)(F)F (centres undefined),6.241,-4.118
O=C(O)C(F)(F)F.[H][C@@]12OCCN(C(=O)c3ccc(F)cc3)[C@@]1([H])CC[C@H]2OCCN(C)C,-16.02,-3.281
CCOC(=O)N1CCN(c2nc(CCN)nc3sc(C)c(C)c23)CC1,44.56,11.68
Cc1ccccc1-n1c(C)cc(=O)[nH]c1=O,-9.919,-6.793
N#CCCN(Cc1cccnc1)C(=O)c1cccc(-n2cnnn2)c1,-34.35 & 1.648,-3.006
COc1ccc(-c2nnc([C@H]3CCN(CC4CC4)C3)o2)cc1,1.39 & -18.72,-16.07
Cc1ccc(C(=O)N2CCC3(CC2)CN(CCN(C)C)C(=O)O3)c(F)c1,-14.36,-3.918 & -16.88
COc1cccc(CNC(=O)c2cccnc2N)c1,18.02,-12.51
O=C(NCCN1CCOCC1)c1cc(COc2ccccc2F)[nH]n1,-24.17,-1.812
COCC[C@]1(O)CCN(C2CCN(C(=O)C3CCC3)CC2)C[C@H]1C,-13.84,14.36
[H][C@@]12C[C@H](C(=O)Nc3cccnc3)[C@@]([H])(CN(Cc3ccc(OC)cc3)C1)O2,-6.608,11.16 & 4.249
COc1cc(OC)c(C2SCC(=O)Nc3n[nH]cc32)cc1OC (centres undefined),14.46 & 2.334,-2.607
CN(CC(=O)N1CCC(OCc2cccnc2)CC1)c1ccccc1,-8.585,-2.112
CCn1cc(CN2CCCN(C(=O)CCc3cccs3)CC2)cn1,-3.323,-22.64
Cc1ccc(S(=O)(=O)Nc2ccc(N3CCOCC3)cn2)cc1,5.41 & 0.2169,-11.88
O=C(Nc1ccc(Cn2cccn2)cc1)N1CCC2(CC1)OCCO2,-9.066,-22.62
CC(C)[C@H](NC(=O)NC1CCS(=O)(=O)C1)C(=O)NCc1cccnc1 (some centres undefined),6.735,-5.005
CCc1nc(CN(C)CC(N)=O)cs1,-28.7,2.248
CC(CNC(=O)NCc1ccsc1)CC1(C)OCCO1 (centres undefined),37.89,13.72
CC1(NC(=O)Cc2csc(-c3ccccc3Cl)n2)CCS(=O)(=O)C1 (centres undefined),-19.6,-7.017
Cc1cnc(CN(C)C2CCN(Cc3ccccc3C#N)C2)o1 (centres undefined),-24.27,-25.86
Cc1ccc(N2CCCN(CC3CC3)C(C(C)C)C2)nn1 (centres undefined),-3.297 & -11.49,3.671
O=C(O)C(F)(F)F.O=C(O)C(F)(F)F.O=S(=O)(C1CC1)N1CCC2(CC1)CN(Cc1ccccn1)CCO2,-62.81,-26.03
Cc1c(CN2CCCC(C(=O)CCc3ccccc3)C2)cc(C#N)n1C (centres undefined),-31.8,-19.25 & 4.479
[H][C@@]12CN(C(=O)c3ccnnc3)C[C@]1([H])C(=O)N(Cc1cccc(C)c1)C2,-6.577 & -7.047,-17.76
CCCc1noc(CNc2cc(C[S+](C)[O-])ccc2Cl)n1 (centres undefined),18.82 & 12.56,10.18 & 8.042
CC(C)(O)CCc1ccc(C(=O)N2CCN(CCS(C)(=O)=O)CC2)cc1,-20.69,25.52
COc1cc(NC(=O)c2ccccc2F)c(C(=O)N(C)C)cc1OC,-35.73,-23.97
COCC(=O)NC(C)c1sc(-c2ccccc2F)nc1C (centres undefined),14.93,25.04
COc1ncccc1CN1Cc2nccn2CC(Cn2cccn2)C1 (centres undefined),-9.137,1.462
CCNc1ncc(C(=O)NCCc2csc(CSC)n2)cn1,-37.16,-6.243
COC(=O)CC1CCN(C(=O)c2ccc(-n3nnnc3C)cc2)CC1,10.17,8.771
CN(C)CCNC(=O)c1ccc(OC2CCN(C(=O)CO)CC2)c(Cl)c1,1.454 & -25.01,-31.58
CCOCC1CC2(CCN(C(=O)c3ncccn3)CC2)CO1 (centres undefined),-9.278,23.04
CC(C)(O)CCc1ccc(C(=O)N2Cc3cnn(CCO)c3C2)cc1,1.636 & -15.54,26.32
O=S(=O)(NCc1ccccc1)Nc1ccc(-n2ccnc2)cc1,-22.44,-29.33
CC(NC(=O)NCCCOC1CCCCC1)c1nncn1C (centres undefined),19.37,-5.041
CSc1ccc(C2SCC(=O)Nc3c2c(=O)[nH]n3C2CCOCC2)cc1 (centres undefined),28.52,2.405
COCc1noc(CCNC(=O)c2cc(C)c(C)[nH]c2=O)n1,-23.63,-19.52 & -0.09839
CC(=O)N1CCC2(CC1)CNc1ccc(F)cc12,-4.769 & -35.12,-22.91
Cc1ccc(Cn2c(=O)[nH]c3csnc3c2=O)cc1,-3.215 & -5.333,-25.27
NC(=O)CNC(c1ccccc1)c1ccccc1,-11.07 & -2.807,-25.35

4 of the entries, repeated:

* O=C(O)C(F)(F)F.O=C(O)C(F)(F)F.O=S(=O)(C1CC1)N1CCC2(CC1)CN(Cc1ccccn1)CCO2 : Mtb glucose medium: -62.81%; Mtb cholesterol medium: -26.03%
* O=C(O)C(F)(F)F.[H][C@@]12OCCN(C(=O)c3ccc(F)cc3)[C@@]1([H])CC[C@H]2OCCN(C)C : Mtb glucose medium: -16.02%; Mtb cholesterol medium: -3.281%
* Cc1noc(C)c1-c1cccc(C2CCCNC2)n1 (centres undefined) : Mtb glucose medium: 30.67%; Mtb cholesterol medium: 15.38%
* Cc1cc(N(C)C)nc(N2CCN(C(C)c3nc(C)no3)CC2)n1 (centres undefined) : Mtb glucose medium: -12.91%; Mtb cholesterol medium: -17.79%